Data published in publication PMC8192512.
Where two headings read alike, the source gives them in different places. These are yes or no findings as the source states them, for the method shown. In cells and extracts the contact can be indirect. These calls come from enrichment with a bait or labelling near it, and not all partners need be listed. Each block holds one molecule with its values, some of them ahead of it.

Chains of the proteins cited; added tags and fusions are not shown. Residues count along the entry.
UniProt Q9QUK6, residues 26-835: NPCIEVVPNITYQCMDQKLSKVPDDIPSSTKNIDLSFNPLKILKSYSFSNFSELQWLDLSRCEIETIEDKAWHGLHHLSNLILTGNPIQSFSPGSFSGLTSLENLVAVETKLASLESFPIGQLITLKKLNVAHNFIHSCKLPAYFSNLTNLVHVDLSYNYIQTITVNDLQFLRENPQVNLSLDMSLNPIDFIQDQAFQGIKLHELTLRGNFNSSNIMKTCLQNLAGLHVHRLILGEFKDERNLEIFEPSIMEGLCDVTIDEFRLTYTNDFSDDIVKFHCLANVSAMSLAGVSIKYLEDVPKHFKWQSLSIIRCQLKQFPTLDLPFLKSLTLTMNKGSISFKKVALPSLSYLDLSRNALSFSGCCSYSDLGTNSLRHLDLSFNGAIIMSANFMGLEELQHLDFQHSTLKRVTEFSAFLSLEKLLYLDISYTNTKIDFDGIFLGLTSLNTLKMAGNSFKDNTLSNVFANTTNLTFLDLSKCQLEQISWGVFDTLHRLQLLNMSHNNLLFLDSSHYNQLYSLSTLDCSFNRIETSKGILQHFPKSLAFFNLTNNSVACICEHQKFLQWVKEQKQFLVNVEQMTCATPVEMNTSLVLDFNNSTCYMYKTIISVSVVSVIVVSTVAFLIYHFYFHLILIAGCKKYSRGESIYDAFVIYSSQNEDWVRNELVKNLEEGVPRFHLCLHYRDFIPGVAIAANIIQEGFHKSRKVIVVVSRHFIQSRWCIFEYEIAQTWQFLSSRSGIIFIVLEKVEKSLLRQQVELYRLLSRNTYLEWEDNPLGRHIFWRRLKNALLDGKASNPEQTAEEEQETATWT
UniProt E2JF22: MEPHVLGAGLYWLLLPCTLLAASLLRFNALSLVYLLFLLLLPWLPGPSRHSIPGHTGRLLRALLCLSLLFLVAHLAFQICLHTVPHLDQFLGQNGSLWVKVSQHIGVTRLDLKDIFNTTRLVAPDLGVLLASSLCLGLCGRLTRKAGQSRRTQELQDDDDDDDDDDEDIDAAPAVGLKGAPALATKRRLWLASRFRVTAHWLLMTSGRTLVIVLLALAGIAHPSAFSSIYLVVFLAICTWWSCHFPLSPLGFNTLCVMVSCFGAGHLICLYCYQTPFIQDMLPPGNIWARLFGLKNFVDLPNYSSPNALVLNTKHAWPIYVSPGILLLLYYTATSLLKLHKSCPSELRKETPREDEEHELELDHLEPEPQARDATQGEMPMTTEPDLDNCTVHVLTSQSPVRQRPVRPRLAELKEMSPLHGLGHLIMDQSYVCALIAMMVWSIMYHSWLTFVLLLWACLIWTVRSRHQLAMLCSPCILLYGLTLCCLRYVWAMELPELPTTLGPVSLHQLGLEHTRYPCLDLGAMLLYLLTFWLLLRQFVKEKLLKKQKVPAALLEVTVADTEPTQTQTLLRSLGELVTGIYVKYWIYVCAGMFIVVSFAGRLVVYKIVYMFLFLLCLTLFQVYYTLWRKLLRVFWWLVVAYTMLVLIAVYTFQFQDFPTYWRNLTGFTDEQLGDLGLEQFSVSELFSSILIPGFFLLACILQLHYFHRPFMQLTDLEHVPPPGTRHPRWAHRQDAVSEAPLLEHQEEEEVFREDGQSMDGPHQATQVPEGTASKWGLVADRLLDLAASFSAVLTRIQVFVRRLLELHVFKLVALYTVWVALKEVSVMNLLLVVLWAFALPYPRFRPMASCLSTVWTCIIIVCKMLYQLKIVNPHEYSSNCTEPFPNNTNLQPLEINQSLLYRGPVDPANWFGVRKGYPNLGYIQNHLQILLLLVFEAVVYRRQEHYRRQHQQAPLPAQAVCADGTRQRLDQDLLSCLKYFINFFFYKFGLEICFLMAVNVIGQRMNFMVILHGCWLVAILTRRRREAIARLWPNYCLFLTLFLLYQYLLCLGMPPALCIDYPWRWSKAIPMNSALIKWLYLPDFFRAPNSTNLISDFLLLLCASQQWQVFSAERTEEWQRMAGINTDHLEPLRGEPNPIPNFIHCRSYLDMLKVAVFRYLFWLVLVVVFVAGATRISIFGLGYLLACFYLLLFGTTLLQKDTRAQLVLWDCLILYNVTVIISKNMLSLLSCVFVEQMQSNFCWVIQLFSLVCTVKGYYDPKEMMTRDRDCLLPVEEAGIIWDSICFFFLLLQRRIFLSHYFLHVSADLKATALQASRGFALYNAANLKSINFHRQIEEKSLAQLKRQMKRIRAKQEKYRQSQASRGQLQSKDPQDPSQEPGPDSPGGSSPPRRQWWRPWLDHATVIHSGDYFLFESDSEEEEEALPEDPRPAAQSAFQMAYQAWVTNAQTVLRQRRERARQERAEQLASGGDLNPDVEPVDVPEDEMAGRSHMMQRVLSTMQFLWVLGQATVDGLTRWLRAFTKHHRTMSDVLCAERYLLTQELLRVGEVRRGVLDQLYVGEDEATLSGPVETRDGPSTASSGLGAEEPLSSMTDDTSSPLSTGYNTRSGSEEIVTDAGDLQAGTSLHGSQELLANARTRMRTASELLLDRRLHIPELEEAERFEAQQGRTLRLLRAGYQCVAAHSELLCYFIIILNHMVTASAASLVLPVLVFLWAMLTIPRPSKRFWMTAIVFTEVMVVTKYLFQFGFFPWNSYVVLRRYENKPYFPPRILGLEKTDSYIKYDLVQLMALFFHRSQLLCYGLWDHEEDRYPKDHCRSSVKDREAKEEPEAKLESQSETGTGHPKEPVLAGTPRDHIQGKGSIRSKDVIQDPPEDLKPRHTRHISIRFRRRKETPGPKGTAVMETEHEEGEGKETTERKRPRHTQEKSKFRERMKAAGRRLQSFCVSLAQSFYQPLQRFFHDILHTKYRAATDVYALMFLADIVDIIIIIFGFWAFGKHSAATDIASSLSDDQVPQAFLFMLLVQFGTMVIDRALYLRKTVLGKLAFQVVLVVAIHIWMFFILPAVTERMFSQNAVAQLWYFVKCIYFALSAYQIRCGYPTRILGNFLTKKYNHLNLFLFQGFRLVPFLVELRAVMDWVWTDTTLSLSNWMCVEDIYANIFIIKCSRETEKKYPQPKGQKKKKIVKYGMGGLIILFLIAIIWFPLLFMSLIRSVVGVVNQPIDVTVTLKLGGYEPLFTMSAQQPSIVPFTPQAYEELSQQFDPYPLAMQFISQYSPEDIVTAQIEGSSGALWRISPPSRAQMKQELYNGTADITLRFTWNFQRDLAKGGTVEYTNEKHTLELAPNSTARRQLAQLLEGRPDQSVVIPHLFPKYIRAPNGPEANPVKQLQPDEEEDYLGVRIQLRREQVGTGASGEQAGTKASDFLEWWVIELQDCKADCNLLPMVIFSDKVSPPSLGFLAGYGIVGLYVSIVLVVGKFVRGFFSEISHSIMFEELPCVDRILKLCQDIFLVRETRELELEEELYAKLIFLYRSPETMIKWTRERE

Tests used:
[1] = target: TLR4 (mouse (endogenous in BMDMs)) (UniProt Q9QUK6); test: affinity purification with mass spectrometry; immunoprecipitation with TLR4 antibody from lysates of BMDMs untreated or treated with LPS (1 ug/ml), Yoda1 (5 uM) or both; mass spectrometry
[2] = target: TLR4 (mouse (endogenous in BMDMs)) (UniProt Q9QUK6); test: as above; remark: listed apart in the source

binding [1]: binds
Molecule: Piezo1 (from UniProt E2JF22 1-2547)

binding [2]: binds
B1: MD2 (protein, UniProt Q9JHF9 19-160)
chain: EKQQWFCNSSDAIISYSYCDHLKFPISISSEPCIRLRGTNGFVHVEFIPRGNLKYLYFNLFISVNSIELPKRKEVLCHGHDDDYSFCRALKGETVNTSIPFSFEGILFPKGHYRCVAEAIAGDTEEKLFCLNFTIIHRRDVN
